In article PMC4605480:
No constants are given. Whether binding was seen depends on the method and setting. In cells and extracts the contact can be indirect. Some results given as binding are weak or reduced against the parent protein; the word gives no strength.

The chains behind the UniProt entries cited, without tags or fusion partners.
UniProt P60903: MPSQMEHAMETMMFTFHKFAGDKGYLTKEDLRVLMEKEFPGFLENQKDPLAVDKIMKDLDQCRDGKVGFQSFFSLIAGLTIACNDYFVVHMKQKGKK
UniProt P07355: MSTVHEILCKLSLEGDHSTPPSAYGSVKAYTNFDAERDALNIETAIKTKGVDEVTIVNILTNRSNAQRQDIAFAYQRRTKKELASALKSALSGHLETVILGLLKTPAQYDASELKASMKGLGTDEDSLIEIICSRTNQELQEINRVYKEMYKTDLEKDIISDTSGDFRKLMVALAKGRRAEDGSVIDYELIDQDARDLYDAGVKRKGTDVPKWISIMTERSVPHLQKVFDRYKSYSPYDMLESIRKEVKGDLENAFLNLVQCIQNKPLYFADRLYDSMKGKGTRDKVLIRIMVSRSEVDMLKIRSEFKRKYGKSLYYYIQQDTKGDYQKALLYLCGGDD

Molecular target: p11 protein (also called S100A10) (human (endogenous in Nalm6)) (UniProt P60903)
Test: co-IP; Nalm6 cells treated with DMSO for 6 h, lysed in 1% Triton X-100 buffer; 1 mg lysate protein incubated overnight with anti-p11 antibody on Protein A Mag Agarose beads via rabbit anti-mouse antibody; blot for ANX2 and p11

Annexin II (from UniProt P07355 1-339)
binding: binds
